# Values quoted from earlier work, collected in patent US20240366569A1, “COMBINATIONS FOR TREATING CANCER” (Purdue Pharmaceutical Products L.P., priority 2023, published 2024).
# For at least one compound, name, drawing or mass did not settle the structure.
# Tested on: advanced melanoma
# Conditions: first-line; cited from earlier work
smiles,measurement,value
CN(C)/N=N/c1[nH]cnc1C(N)=O [dacarbazine],objective response rate,13.9%
same,progression-free survival,2.2 months
